Assay results: the supplement of paper PMC9135407
Where “and” joins values, the source holds several entries; their conditions need not be identical. Identical values can stand only once. Counter-ions that a name gives are not always drawn. ± gives the standard deviation of the averaged measurements. The list shows a part of the results. Part of the spread comes from offsets between plates or batches.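 Culture-activated primary human stellate myofibroblasts, where regained lipid droplets signal inactivation. Value: share of Hoechst-counted cells above a per-plate Bodipy cutoff, in duplicate wells, with DMSO negative and nortriptyline positive controls on each plate. Hits: a control-normalized score above the plate's top-tenth-percentile nortriptyline wells, or one of a plate's three best wells. Final well concentrations are not given.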

Test system: primary human hepatic stellate cells (donor 1)
Assay: percent Bodipy-positive cells; higher = more lipid droplet accumulation
Settings: 48 h
[1] = library stock concentration: 10 mM
[2] = library stock concentration: 1 mM
[3] = library stock concentration: 5.9 mM
[4] = library stock concentration: 3.33 mM
[5] = library stock concentration: 2 mM

Clc1ccc(-c2nc3sccn3c2/C=N/OCc2ccc(Cl)c(Cl)c2)cc1
percent Bodipy-positive cells [1]: 10.4 ± 1%

O=S(=O)(c1cccc2c(I)cccc12)N1CCCNCC1
percent Bodipy-positive cells [1]: 93.5 ± 3.8%

O=C(c1cccs1)c1ccc(OCCCO)c(Cl)c1Cl [homo-Tienilic Alcohol]
percent Bodipy-positive cells [2]: 6.13 ± 1.6%

CCN1CCC[C@H]1CNC(=O)c1cc(S(N)(=O)=O)ccc1OC
percent Bodipy-positive cells [1]: 8.93 ± 1%

CCN1CCC[C@H]1CNC(=O)c1cc(S(N)(=O)=O)ccc1OC [(S)-(-)-Sulpiride]
percent Bodipy-positive cells [1]: 5.96 ± 1%

CCN1CCC[C@H]1CNC(=O)c1cc(S(N)(=O)=O)ccc1OC [Sulpiride s (-)]
percent Bodipy-positive cells [3]: 7.17 ± 1.5%

CCN1CCC[C@H]1CNC(=O)c1cc(S(N)(=O)=O)ccc1OC [Levosulpiride]
percent Bodipy-positive cells [4]: 7.02 ± 1.4% | percent Bodipy-positive cells [1]: 27.6 ± 20%

Nc1ccc(S(N)(=O)=O)cc1 [Sulfanilamide]
percent Bodipy-positive cells: 7.69 ± 1.2% | percent Bodipy-positive cells [4]: 14.2 ± 2.6% | percent Bodipy-positive cells [1]: 12.3% and 29.3% | percent Bodipy-positive cells (library stock concentration: 11.6 mM): 11.1 ± 0.48%

COc1cc2ncnc(Nc3ccc(Oc4ccccc4)cc3)c2cc1OC [Src Kinase Inhibitor I]
percent Bodipy-positive cells [4]: 20.4 ± 4%

COc1cc2ncnc(Nc3ccc(Oc4ccccc4)cc3)c2cc1OC
percent Bodipy-positive cells [1]: 12.7 ± 4%

CCCCCCCCCCCC(=O)O [Lauric Acid]
percent Bodipy-positive cells [2]: 11.1 ± 1.2%

CC1CCN(CCCC(=O)c2ccc(F)cc2)CC1 [Metylperon]
percent Bodipy-positive cells [1]: 20.7 ± 2%

CC1CCN(CCCC(=O)c2ccc(F)cc2)CC1
percent Bodipy-positive cells [1]: 23.1 ± 5%

CC1CCN(CCCC(=O)c2ccc(F)cc2)CC1 [Melperone hydrochloride]
percent Bodipy-positive cells [1]: 17.1 ± 5.9%

COc1cc2c(Oc3ccc(NC(=O)C4(C(=O)Nc5ccc(F)cc5)CC4)cc3F)ccnc2cc1OCCCN1CCOCC1
percent Bodipy-positive cells [4]: 92.3 ± 6%

CCOc1nc2cccc(C(=O)OC(C)OC(=O)OC3CCCCC3)c2n1Cc1ccc(-c2ccccc2-c2nn[nH]n2)cc1 (stereo unspecified) [Candesartan cilextil]
percent Bodipy-positive cells [1]: 37 ± 4.2%

CCOc1nc2cccc(C(=O)OC(C)OC(=O)OC3CCCCC3)c2n1Cc1ccc(-c2ccccc2-c2nn[nH]n2)cc1 (stereo unspecified) [Candesartan Cilexetil]
percent Bodipy-positive cells [4]: 9.42 ± 1.9% | percent Bodipy-positive cells [1]: 28.5 ± 18%

N[C@@H](CCC(=O)N[C@@H](CSN=O)C(=O)NCC(=O)O)C(=O)O [S-Nitrosoglutathione]
percent Bodipy-positive cells [1]: 36.89 ± 0.13%

CC(O)(C(=O)Nc1ccc(S(=O)(=O)c2ccccc2)cc1)C(F)(F)F (stereo unspecified)
percent Bodipy-positive cells [1]: 9.72 ± 0.63% | percent Bodipy-positive cells (library stock concentration: 13.4 mM): 38.9 ± 19%

CC1=C(C(=O)OCCN(Cc2ccccc2)c2ccccc2)C(c2cccc([N+](=O)[O-])c2)C(P2(=O)OCC(C)(C)CO2)=C(C)N1 (stereo unspecified) [Efonidipine hydrochloride monoethanolate]
percent Bodipy-positive cells [1]: 8.18 ± 2.9%

C1CCC2(CC1)CCNCC2 [4,4-Pentamethylenepiperidine hydrochloride]
percent Bodipy-positive cells [1]: 12.7 ± 4.1%

CCCNS(=O)(=O)Nc1ncnc(OCCOc2ncc(Br)cn2)c1-c1ccc(Br)cc1 [Macitentan]
percent Bodipy-positive cells [4]: 34.1 ± 7.6% | percent Bodipy-positive cells [1]: 42.7 ± 19%

CC(CCc1ccc(O)cc1)NCCc1ccc(O)c(O)c1 (stereo unspecified) [Dobutamine hydrochloride]
percent Bodipy-positive cells: 25.9 ± 0.93% | percent Bodipy-positive cells [3]: 11.5 ± 0.24%

CC(CCc1ccc(O)cc1)NCCc1ccc(O)c(O)c1 (stereo unspecified) [Dobutamine HCl]
percent Bodipy-positive cells (library stock concentration: 6.6 mM): 6.28 ± 2%

CCCCCCCCCCCCCCCCn1cc[n+](Cc2ccccc2)c1C.[I-]
percent Bodipy-positive cells [4]: 87.44 ± 0.72%

C=CC(=O)N1CCc2ccc(-n3c(=O)ccc4cnc5ccc(-c6cnn(C)c6)cc5c43)cc21
percent Bodipy-positive cells [1]: 100%

O=C(NC1CC1)c1cccc(-c2ccc3c(NC(=O)C4CC4)n[nH]c3c2)c1
percent Bodipy-positive cells (library stock concentration: 80 uM): 8.48 ± 3.4% | percent Bodipy-positive cells (library stock concentration: 400 uM): 12.3 ± 0.61% | percent Bodipy-positive cells [5]: 11.2 ± 3.8% | percent Bodipy-positive cells [1]: 14.9 ± 3.3%

CC[C@]12CCCN3CCc4c(n(c5ccccc45)[C@@](O)(C(=O)OC)C1)[C@@H]32 [Vincamine]
percent Bodipy-positive cells: 37.3 ± 6.7% | percent Bodipy-positive cells [1]: 32.1 ± 11%

CC1=NN(c2ccc(C(=O)O)cc2)C(=O)C1=Cc1ccc(-c2cc(C)c(C)cc2[N+](=O)[O-])o1
percent Bodipy-positive cells [4]: 25.1 ± 2.5% | percent Bodipy-positive cells [1]: 24.2 ± 7.5%

CC(C)N(CCC(=O)c1ccc2ccccc2c1)Cc1ccccc1
percent Bodipy-positive cells [4]: 91.1 ± 0.92% | percent Bodipy-positive cells [1]: 97.9 ± 3%

CC(C)(C)C#Cc1cc(N(C(=O)[C@H]2CC[C@H](C)CC2)[C@H]2CC[C@H](O)CC2)c(C(=O)O)s1 [VX-222 (VCH-222, Lomibuvir)]
percent Bodipy-positive cells [4]: 12.4 ± 7% | percent Bodipy-positive cells [1]: 35 ± 1.6%

CCOC(=O)c1ccc(C#Cc2ccc3c(c2)C(C)(C)CCS3)nc1 [Tazarotene]
percent Bodipy-positive cells [4]: 15.5 ± 5.3% | percent Bodipy-positive cells [1]: 21.9 ± 0.46%

C#CCCCCCCCCCNC(=O)Oc1cccc(-c2cccc(C(N)=O)c2)c1
percent Bodipy-positive cells [2]: 8.28 ± 3.1%

CCC(C)(C)c1ccc(CC(C)CN2C[C@@H](C)O[C@@H](C)C2)cc1 (stereo partly specified)
percent Bodipy-positive cells [1]: 45 ± 3.8%

CCC(C)(C)c1ccc(CC(C)CN2C[C@@H](C)O[C@@H](C)C2)cc1 (stereo partly specified) [Amorolfine]
percent Bodipy-positive cells (library stock concentration: 6.3 mM): 23.3 ± 15%

CCC(C)(C)c1ccc(CC(C)CN2C[C@@H](C)O[C@@H](C)C2)cc1 (stereo partly specified) [Amorolfine HCl]
percent Bodipy-positive cells [4]: 16.6 ± 0.68% | percent Bodipy-positive cells [1]: 50.5 ± 12%

CCCCC/C=C\C/C=C\CC/C=C\CCCC(=O)O [Pinolenic Acid]
percent Bodipy-positive cells [2]: 6.78 ± 1.7%

COc1ccc(-c2cc3c(C)nc(N)nc3n([C@H]3CC[C@H](OCCO)CC3)c2=O)cn1
percent Bodipy-positive cells [4]: 7.85 ± 2.4% | percent Bodipy-positive cells [1]: 44.4 ± 4%

CCCCCCCCNC(=O)Cc1c(C)n(C(=O)c2ccc(Cl)cc2)c2ccc(OC)cc12 [Indomethacin N-octyl amide]
percent Bodipy-positive cells [2]: 26.4 ± 26%

CC(C)(C)c1cc(NC(=O)Nc2ccc(-c3cn4c(n3)sc3cc(OCCN5CCOCC5)ccc34)cc2)no1 [Quizartinib  (AC220) (10 mM)]
percent Bodipy-positive cells [1]: 97.084 ± 0.083%

CC(C)(C)c1cc(NC(=O)Nc2ccc(-c3cn4c(n3)sc3cc(OCCN5CCOCC5)ccc34)cc2)no1 [Quizartinib  (AC220) (2 mM)]
percent Bodipy-positive cells [5]: 66.5 ± 5.7%

Cn1c(=O)c(F)c(Nc2ccc(I)cc2F)c2c(=O)n(C[C@@H](O)CO)cnc21
percent Bodipy-positive cells [4]: 20.5 ± 7.5% | percent Bodipy-positive cells [1]: 34.6 ± 4.7%
